Values of other authors in patent US20160338955A1, “ANTIGEN-SPECIFIC IMMUNOTHERAPY USING TOLERIZING LIPOSOMES” (PLS-Design GmbH, priority 2015, published 2016).
For some assays here: At least one structure is not confirmed: it was looked up by name or label, or the drawing left a doubt. Some of these results come from one statement about several compounds together.

Experiments:
[1] = in vivo; cited from earlier work
[2] = system: asthma exacerbation; conditions: after six months of treatment; cited from earlier work
[3] = system: idiopathic thrombocytopenic purpura; conditions: i.v. 40 mg/day for 4 consecutive days, 4-6 cycles every 28 days; cited from earlier work
[4] = system: DC maturation; conditions: in vitro, cited from earlier work
[5] = short half-life group, units given in the value; cited from earlier work

C[C@H]1C[C@H]2[C@@H]3CCC4=CC(=O)C=C[C@]4(C)[C@@]3(F)[C@@H](O)C[C@]2(C)[C@@]1(O)C(=O)CO [betamethasone]
glucocorticoid potency (in words) [1]: rather high potency

CCCC1O[C@@H]2C[C@H]3[C@@H]4CCC5=CC(=O)C=C[C@]5(C)[C@H]4[C@@H](O)C[C@]3(C)[C@]2(C(=O)CO)O1 (some centres unmarked) [budesonide]
children experiencing asthma exacerbation [2]: 46%

C[C@@H]1C[C@H]2[C@@H]3CCC4=CC(=O)C=C[C@]4(C)[C@@]3(F)[C@@H](O)C[C@]2(C)[C@@]1(O)C(=O)CO [dexamethasone]
glucocorticoid potency (in words) [1]: rather high potency | response rate [3]: approx. 90% | concentration for 100% inhibition of DC maturation [4]: 500 nM | IC50 ([4]; read-out: concentration for 50% inhibition of DC maturation): 2 to 30 nM

C[C@]12CCC(=O)C=C1CC[C@@H]1[C@@H]2[C@@H](O)C[C@@]2(C)[C@H]1CC[C@]2(O)C(=O)CO [hydrocortisone]
plasma half-life [5]: 0.5 h and 2 h

C[C@H]1C[C@@H]2[C@H]([C@@H](O)C[C@@]3(C)[C@H]2CC[C@]3(O)C(=O)CO)[C@@]2(C)C=CC(=O)C=C12 [methylprednisolone]
glucocorticoid potency (in words) [1]: intermediate potency
